Reference: PubChem BioAssay AID1224828 (NIAID, 2016)

- Purpose: 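Knock-downs that increase or decrease LPS-induced p65 nuclear translocation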 (primary screen)
- Cell system: mouse RAW264.7 G9 macrophage reporter cells (GFP-p65, Tnf promoter-mCherry)
- Knock-down reagent: siRNA pool against mouse genes, 100 nM
- Duration: 2 days siRNA transfection, then 40 min LPS before fixation
- Challenge: LPS (Salmonella minnesota R595) at 10 ng/ml
- Detection: 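Microscopy ratio of nuclear to perinuclear-ring GFP-p65 signal, scaled to the plate median; gene score is the average of two replicate robust z-scores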
- Reading the numbers: p65 translocation robust z-score: higher = more nuclear NF-kappaB p65 after LPS than the plate median; nuclear/cytoplasmic p65 ratio: higher = more nuclear NF-kappaB p65
- Rule for the call: 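Active if robust z is above 3.3 (negative regulators) or below -1.56, the Tlr4 control median (positive regulators); activity score 50 or more; control wells not called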
- Meaning of the calls: active = hit (p65 shift raised or lowered); inactive = no clear change
The whole screen tested about 17,000 reagents; this is a part drawn at random. 762 of them (4.5%) were called active. 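Active calls include both raised and lowered p65 entry, mostly lowered; wells with fewer than 50 cells lack a z-score.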 Raw values vary from plate to plate and are shown uncorrected. A number with no mark means an inactive call. Reagents against one gene are numbered here. Reagent sequences are not shown.

p65 translocation robust z-score | nuclear/cytoplasmic p65 ratio, rep 1 | nuclear/cytoplasmic p65 ratio, rep 2 | low cell count flag | Gene | reagent
-0.76 | 1.5 | 1.5 | enough cells to score | Or10ag60 (olfactory receptor family 10 subfamily AG member 60) | 1
– | 0.962 | 0.905 | fewer than 50 cells per well; well left out of scoring | Zrsr2-ps1 | 1
1.84 | 1.43 | 1.57 | enough cells to score | Nudcd1 (NudC domain containing 1) | 1
-1.82 (active) | 1.16 | 1.29 | enough cells to score | Slc17a4 | 1
0.9 | 1.59 | 1.77 | enough cells to score | Serpinb13 | 1
-0.53 | 1.29 | 1.28 | enough cells to score | Grap2 (GRB2-related adaptor protein 2) | 1
0.27 | 1.44 | 1.49 | enough cells to score | Ntf5 (neurotrophin 5) | 1
– | 1.12 | 1.27 | fewer than 50 cells per well; well left out of scoring | Edc3 (enhancer of mRNA decapping 3) | 1
-0.42 | 1.64 | 1.28 | enough cells to score | Rhoq (ras homolog family member Q) | 1
0.86 | 1.5 | 1.58 | enough cells to score | Pde3a (phosphodiesterase 3A, cGMP inhibited) | 1
-1.18 | 1.51 | 1.38 | enough cells to score | Adam18 (a disintegrin and metallopeptidase domain 18) | 1
1.62 | 1.85 | 1.67 | enough cells to score | Fpr-rs3 (formyl peptide receptor, related sequence 3) | 1
– | 1.4 | 1.33 | fewer than 50 cells per well; well left out of scoring | Eef1e1 (eukaryotic translation elongation factor 1 epsilon 1) | 1
-0.28 | 1.41 | 1.3 | enough cells to score | Mcoln1 (mucolipin 1) | 1
1.97 | 1.59 | 1.83 | enough cells to score | Pkd1 | 1
0.34 | 1.46 | 1.61 | enough cells to score | Nhlrc3 (NHL repeat containing 3) | 1
-1.63 (active) | 1.29 | 1.5 | enough cells to score | Slc7a6 | 1
0.61 | 1.48 | 1.23 | enough cells to score | Trdn (triadin) | 1
0.12 | 1.46 | 1.23 | enough cells to score | Slc39a14 | 1
– | 1.2 | 1.32 | fewer than 50 cells per well; well left out of scoring | Smad6 (SMAD family member 6) | 1
-0.15 | 1.51 | 1.35 | enough cells to score | Rad51ap1 (RAD51 associated protein 1) | 1
0.2 | 1.61 | 1.67 | enough cells to score | Cytl1 (cytokine-like 1) | 1
-1.69 (active) | 1.4 | 1.34 | enough cells to score | S1pr2 (sphingosine-1-phosphate receptor 2) | 1
-0.5 | 1.26 | 1.17 | enough cells to score | Vars1 (valyl-tRNA synthetase 1) | 1
-0.37 | 1.51 | 1.48 | enough cells to score | Npy4r (neuropeptide Y receptor Y4) | 1
-0.37 | 1.39 | 1.32 | enough cells to score | Foxs1 (forkhead box S1) | 1
0.47 | 1.33 | 1.44 | enough cells to score | Cbx3 (chromobox 3) | 1
– | 1.24 | 1.47 | fewer than 50 cells per well; well left out of scoring | 1700102P08Rik (RIKEN cDNA 1700102P08 gene) | 1
-0.85 | 1.48 | 1.33 | enough cells to score | Ropn1l (ropporin 1-like) | 1
1.09 | 1.63 | 1.71 | enough cells to score | Rad23b (RAD23 homolog B, nucleotide excision repair protein) | 1
-0.49 | 1.5 | 1.4 | enough cells to score | Tnfrsf19 (tumor necrosis factor receptor superfamily, member 19) | 1
-1.54 | 1.36 | 1.26 | enough cells to score | Gemin7 (gem nuclear organelle associated protein 7) | 1
0.75 | 1.41 | 1.71 | enough cells to score | A930033H14Rik (RIKEN cDNA A930033H14 gene) | 1
-0.53 | 1.47 | 1.73 | enough cells to score | Kat14 (lysine acetyltransferase 14) | 1
-0.41 | 1.39 | 1.16 | enough cells to score | Spam1 (sperm adhesion molecule 1) | 1
0.69 | 1.53 | 1.7 | enough cells to score | Tjp1 (tight junction protein 1) | 1
0.27 | 1.63 | 1.68 | enough cells to score | Cenpu (centromere protein U) | 1
3.6 (active) | 2.08 | 1.52 | enough cells to score | Or8b56 (olfactory receptor family 8 subfamily B member 56) | 1
0.23 | 1.52 | 1.38 | enough cells to score | Col14a1 (collagen, type XIV, alpha 1) | 1
-2.82 (active) | 1.17 | 1.11 | enough cells to score | Hcar1 (hydrocarboxylic acid receptor 1) | 1
1.26 | 1.59 | 1.65 | enough cells to score | Ptgs1 (prostaglandin-endoperoxide synthase 1) | 1
0.75 | 1.63 | 1.59 | enough cells to score | Trp73 (transformation related protein 73) | 1
0.81 | 1.46 | 1.56 | enough cells to score | Ms4a19 (membrane-spanning 4-domains, subfamily A, member 19) | 1
-0.93 | 1.26 | 1.27 | enough cells to score | Fgf18 (fibroblast growth factor 18) | 1
0.54 | 1.58 | 1.61 | enough cells to score | Tcn2 (transcobalamin 2) | 1
0.47 | 1.65 | 1.85 | enough cells to score | Cyp39a1 (cytochrome P450, family 39, subfamily a, polypeptide 1) | 1
-0.2 | 1.28 | 1.2 | enough cells to score | Rrp9 | 1
1.49 | 1.74 | 1.49 | enough cells to score | Dnajc2 (DnaJ heat shock protein family (Hsp40) member C2) | 1
-0.16 | 1.25 | 1.23 | enough cells to score | Dnajc2 (DnaJ heat shock protein family (Hsp40) member C2) | 2
0.37 | 1.48 | 1.25 | enough cells to score | Rnase9 (ribonuclease, RNase A family, 9 (non-active)) | 1
0.02 | 1.42 | 1.39 | enough cells to score | H2-Aa (histocompatibility 2, class II antigen A, alpha) | 1
-0.17 | 1.67 | 1.36 | enough cells to score | Epha7 (Eph receptor A7) | 1
0.21 | 1.82 | 1.49 | enough cells to score | Nup107 (nucleoporin 107) | 1
-1.27 | 1.39 | 1.62 | enough cells to score | Flrt1 (fibronectin leucine rich transmembrane protein 1) | 1
– | 1.15 | 0.985 | fewer than 50 cells per well; well left out of scoring | Dynlt3 (dynein light chain Tctex-type 3) | 1
-1.01 | 1.34 | 1.46 | enough cells to score | Cxcl1 (C-X-C motif chemokine ligand 1) | 1
– | 1.28 | 0 | fewer than 50 cells per well; well left out of scoring | Siglecl2 (Siglec family like 2) | 1
-1.56 | 1.12 | 1.1 | enough cells to score | Vmn1r189 (vomeronasal 1 receptor 189) | 1
-0.55 | 1.58 | 1.65 | enough cells to score | B430217B02Rik (retired record) | 1
– | 1.23 | 2.09 | fewer than 50 cells per well; well left out of scoring | Zfp738 (zinc finger protein 738) | 1
-1.13 | 1.62 | 1.4 | enough cells to score | Mrgpra5 (MAS-related GPR, member A5) | 1
– | 1.19 | 1.14 | fewer than 50 cells per well; well left out of scoring | Abhd16b (abhydrolase domain containing 16B) | 1
0.56 | 1.42 | 1.7 | enough cells to score | Celf4 (CUGBP, Elav-like family member 4) | 1
– | 1.33 | 0.932 | fewer than 50 cells per well; well left out of scoring | Pcdhgb6 (protocadherin gamma subfamily B, 6) | 1
0.05 | 1.32 | 1.26 | enough cells to score | Snrnp25 (small nuclear ribonucleoprotein 25 (U11/U12)) | 1
-1.08 | 1.05 | 1.24 | enough cells to score | Ccna2 (cyclin A2) | 1
0.42 | 1.87 | 1.53 | enough cells to score | Mill1 (MHC I like leukocyte 1) | 1
0.24 | 1.47 | 1.83 | enough cells to score | Cyp8b1 (cytochrome P450, family 8, subfamily b, polypeptide 1) | 1
1.45 | 1.56 | 1.35 | enough cells to score | Prss22 (serine protease 22) | 1
-1.17 | 1.45 | 1.48 | enough cells to score | Ap1g2 (adaptor protein complex AP-1, gamma 2 subunit) | 1
0.5 | 1.83 | 1.31 | enough cells to score | Slc6a20b | 1
-0.5 | 1.37 | 1.36 | enough cells to score | Pcdhb20 (protocadherin beta 20) | 1
0.08 | 1.42 | 1.42 | enough cells to score | Dock5 (dedicator of cytokinesis 5) | 1
– | 1.09 | 1.13 | fewer than 50 cells per well; well left out of scoring | Ttyh3 (tweety family member 3) | 1
-1.51 | 1.32 | 1.34 | enough cells to score | Gpr132 (G protein-coupled receptor 132) | 1
